Record: PubChem BioAssay AID1259424 (University of Nebraska Medical Center, 2018)

Assay: 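Find knockdowns that reproduce the expression shifts seen after KSR1 loss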 (primary screen)
System: human HCT116 colon cancer cells
Knock-down reagent: siRNA pool against human genes, 50 nM
Measurement: 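Log2 levels of six mRNAs (branched-DNA multiplex), adjusted by two reference genes and the non-targeting median, then scored against the average KSR1 knockdown pattern as Pearson r and euclidean distance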
Scale: mean correlation with KSR1 profile and KSR1 correlation: higher = expression change more like KSR1 knockdown; mean distance from KSR1 profile: higher = expression change less like KSR1 knockdown
In all, the deposit lists about 14,000 reagents; below is a random part of them. 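Higher correlation or smaller distance means closer resemblance to KSR1 loss; control wells, including KSR1 knockdowns, recur on many plates.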 The record does not give: the time to read-out.

gene knocked down	mean correlation with KSR1 profile	mean distance from KSR1 profile	KSR1 correlation, replicate 1	KSR1 correlation, replicate 2	KSR1 correlation, replicate 3
DDC (GeneID 1644)	0.000361	3.34	-0.429	0.0344	0.32
NUP155 (GeneID 9631)	-0.383	1.93	-0.426	-0.505	-0.161
TOP1 (GeneID 7150)	0.559	0.781	0.587	0.469	0.478
BEX1 (GeneID 55859)	0.406	2.65	0.189	-0.0557	0.46
BBC3 (GeneID 27113)	0.78	1.33	0.837	0.552	0.681
MYH7B (GeneID 57644)	-0.117	2.05	-0.0443	-0.0368	-0.0511
ZBTB6 (GeneID 10773)	-0.251	3.43	0.251	-0.137	-0.48
OSBPL10 (GeneID 114884)	-0.252	2.62	-0.418	-0.309	-0.161
MAPK11 (GeneID 5600)	0.74	1.06	0.922	0.616	-0.135
MOB2 (GeneID 81532)	0.298	2.08	-0.00542	0.316	0.28
COMMD9 (GeneID 29099)	0.61	2.18	0.48	0.564	0.362
TNFRSF18 (GeneID 8784)	0.0822	2.53	0.228	0.0172	0.0826
UBR5 (GeneID 51366)	0.145	0.986	-0.32	0.084	0.588
FKBP3 (GeneID 2287)	-0.658	2.01	-0.718	-0.534	-0.777
PPP1CA (GeneID 5499)	-0.63	1.54	-0.597	-0.742	-0.38
WNT10B (GeneID 7480)	-0.346	2.57	-0.325	-0.528	-0.282
LIMA1 (GeneID 51474)	-0.261	1.5	-0.509	-0.192	-0.226
SGSH (GeneID 6448)	0.0329	2.77	0.0279	0.0272	-0.0022
RXRG (GeneID 6258)	-0.398	2.05	-0.283	-0.282	-0.641
PSAT1 (GeneID 29968)	-0.502	1.91	-0.649	-0.635	-0.617
DHFRP3 (GeneID 1720)	-0.0906	1.78	0.0965	-0.222	-0.225

Next part (5 carried over from the part before).
gene knocked down	mean correlation with KSR1 profile	mean distance from KSR1 profile	KSR1 correlation, replicate 1	KSR1 correlation, replicate 2	KSR1 correlation, replicate 3
LIMA1 (GeneID 51474)	-0.261	1.5	-0.509	-0.192	-0.226
SGSH (GeneID 6448)	0.0329	2.77	0.0279	0.0272	-0.0022
RXRG (GeneID 6258)	-0.398	2.05	-0.283	-0.282	-0.641
PSAT1 (GeneID 29968)	-0.502	1.91	-0.649	-0.635	-0.617
DHFRP3 (GeneID 1720)	-0.0906	1.78	0.0965	-0.222	-0.225
S100A5 (GeneID 6276)	-0.438	3.03	-0.526	-0.434	-0.344
NPDC1 (GeneID 56654)	-0.578	1.88	-0.587	-0.827	-0.618
POFUT3 (GeneID 84750)	0.0304	2.77	0.0107	-0.212	-0.0846
PMS1 (GeneID 5378)	0.000322	2.13	0.0658	-0.537	-0.2
HAPLN1 (GeneID 1404)	0.131	2.6	-0.228	0.345	0.257
FIGN (GeneID 55137)	-0.526	2.86	-0.554	-0.645	-0.448
APP (GeneID 351)	-0.297	2.92	-0.231	-0.19	-0.218
CYP11A1 (GeneID 1583)	-0.0016	2.39	0.0515	-0.168	-0.0543
NAT2 (GeneID 10)	0.134	2.32	0.0433	0.191	0.111
RAN (GeneID 5901)	-0.269	1.49	-0.202	-0.00534	-0.231
GNAL (GeneID 2774)	-0.471	1.64	-0.58	-0.832	-0.294
TMEM87B (GeneID 84910)	0.509	1.86	0.604	0.403	0.234
C1GALT1 (GeneID 56913)	-0.197	3.35	-0.34	0.0467	-0.0137
ACKR1 (GeneID 2532)	0.452	1.61	0.364	0.593	0.276
GABRA1 (GeneID 2554)	-0.336	1.67	-0.192	-0.663	-0.134
LRRC8C (GeneID 84230)	0.221	2.44	0.344	0.261	0.0258
LRRC37A2 (GeneID 474170)	0.706	2.35	0.853	0.905	0.264
IPO11 (GeneID 51194)	-0.553	2.77	-0.76	-0.382	-0.313
PCDHGC4 (GeneID 56098)	-0.0992	1.96	-0.236	-0.169	-0.0897
ADAM28 (GeneID 10863)	0.0732	1.82	0.261	-0.2	0.0119
WFDC1 (GeneID 58189)	0.654	0.929	0.659	0.62	0.488
AKAP13 (GeneID 11214)	-0.0903	2.55	0.145	-0.22	-0.318
MTA2 (GeneID 9219)	0.258	1.46	0.496	0.211	-0.377
HSPBP1 (GeneID 23640)	-0.522	3.05	-0.332	-0.781	-0.487
AKAP6 (GeneID 9472)	0.881	1.68	0.941	0.862	0.543
MTMR9 (GeneID 66036)	0.429	1.74	0.494	0.293	0.0731
CDK1 (GeneID 983)	0.0123	4.91	0.0668	0.179	-0.23
PLEK (GeneID 5341)	0.615	0.833	0.454	0.437	0.545
ZNF24 (GeneID 7572)	-0.569	4.08	-0.454	-0.51	-0.595
